Reference: PubChem BioAssay AID1671190 (National Center for Advancing Translational Sciences (NCATS), 2021)
About 6,100 (1.1%) of roughly 580,000 compounds were called active. The inconclusive results got no clear call from the source; some entries with a clear call stand among them for comparison. The call rests on the fitted dose curve; in most records, active means well fitted inhibition curve with a large enough effect; inconclusive means small, poorly fitted or top-dose-only effect, or another doubt; inactive means no such curve, though single readings can be large or run the other way. Where the call is inconclusive, the potency comes from a doubtful curve fit.
On the % scale 0 is the no-effect control and ±100 the full control effect; potency means the concentration at half of the fitted maximal effect.

Sequences of proteins named here, by UniProt entry; tags and fusion partners are left off. A change or cut given only in a name is not applied to a line headed by its entry.
UniProt P18054: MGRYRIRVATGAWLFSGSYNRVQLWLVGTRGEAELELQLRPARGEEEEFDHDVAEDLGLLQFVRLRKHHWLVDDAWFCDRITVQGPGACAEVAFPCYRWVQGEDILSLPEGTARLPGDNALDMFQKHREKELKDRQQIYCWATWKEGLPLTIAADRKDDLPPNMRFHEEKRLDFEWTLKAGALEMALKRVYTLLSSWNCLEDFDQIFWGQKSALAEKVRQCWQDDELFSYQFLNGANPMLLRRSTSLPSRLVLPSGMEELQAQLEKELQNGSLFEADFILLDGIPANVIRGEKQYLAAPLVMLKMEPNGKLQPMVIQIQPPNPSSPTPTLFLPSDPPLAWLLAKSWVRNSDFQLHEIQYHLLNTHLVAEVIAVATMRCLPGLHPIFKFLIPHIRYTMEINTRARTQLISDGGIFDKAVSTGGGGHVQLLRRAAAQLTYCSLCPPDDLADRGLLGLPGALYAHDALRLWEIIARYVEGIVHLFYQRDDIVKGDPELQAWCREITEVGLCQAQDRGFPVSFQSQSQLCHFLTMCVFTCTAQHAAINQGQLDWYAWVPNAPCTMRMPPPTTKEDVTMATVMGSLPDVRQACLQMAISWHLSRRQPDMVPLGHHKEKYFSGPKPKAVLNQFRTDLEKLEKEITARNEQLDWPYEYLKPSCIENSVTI

The compounds below were run against Polyunsaturated fatty acid lipoxygenase ALOX12 (Homo sapiens) (UniProt P18054) (assay: Primary qHTS assay for inhibitors of human arachidonate 12S-lipoxygenase (ALOX12): Round 2). Conditions: purified 12hLO, xylenol orange hydroperoxide absorbance; activity change, negative = inhibition: at 108 µM (top of the series) unless noted.
Procedure, shortened: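 Purified human 12hLO (150 nM final) in 25 mM Hepes, 0.01% Triton X-100, pH 7.0 was preincubated 15 min at room temperature with compound. Then 40 uM arachidonic acid was added, 30 min. Hydroperoxide was read by Fe-XO absorbance ratio 573/405 nm.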
In the case of `O=C(O)CCC(=O)N1CCN(C2CCNCC2)C(=O)C1`, the Potency is reported as inconclusive: 5.01 µM [inhibitor, full curve, poor fit].
For `COc1ccc(CC(=O)Nc2nc3c(s2)CCCC3)cc1`, the Potency was inconclusive: 63.1 µM [inhibitor, partial curve, poor fit].
`CC(CCc1ccccc1)Nc1ncnc2c1CN(C1CCNC1)C(=O)CN2C` (stereo not given) was tested, and the Potency was inconclusive: 5.62 µM [inhibitor, full curve].
`FC(F)(F)c1cc(Cl)c2nc(-c3ccccc3)c(Cc3cccc(Cl)c3)n2c1` was tested, and the Potency was inconclusive: 50.1 µM [inhibitor, partial curve, poor fit].
With `CCOc1ccc(-c2cc3c(=O)n(CC(=O)NCc4ccc(F)cc4)ccn3n2)cc1` the Potency was inconclusive: 100 µM [inhibitor, partial curve, poor fit].
For `CCN(CC(=O)Nc1ccc(OC)cc1)C(=O)c1ccc(OCc2c(C)noc2C)cc1`, the Potency was inconclusive: 0.251 µM [inhibitor, full curve, poor fit].
For `Fc1cccc(NC(=S)NCc2ccccc2)c1`, the Potency was inconclusive: 5.01 µM [inhibitor, full curve, poor fit].
For `CCOC(=O)c1cccc(NC(=O)CCS(=O)(=O)c2ccc3c(c2)CCN3C(=O)CC)c1`, the Potency was inconclusive: 17.8 µM [inhibitor, partial curve, poor fit].
With `Cc1ccc(S(=O)(=O)c2nnn3c2nc(N2CCOCC2)c2ccccc23)cc1` the Potency was inconclusive: 3.98 µM [inhibitor, full curve, poor fit].
For `COC(=O)C[C@](O)(CCCC(C)(C)O)C(=O)O[C@@H]1C(OC)=C[C@]23CCCN2CCc2cc4c(cc2[C@H]13)OCO4`, the Potency was inconclusive: 0.306 µM [inhibitor, full curve].
`CC(=O)c1c(Cl)nc2cccc3c2c1-c1ccccc1C3=O` was tested, and the “activity change, negative = inhibition” value was inactive: 0%.
`CCOC(=O)CNC(=S)N(Cc1cccs1)C1CCCCC1` was tested, and the “activity change, negative = inhibition” value was inactive: -16.4%.
With `O=C(c1ccccc1)N1CCOCC12CCN(Cc1ccc3[nH]ccc3c1)CC2` the Potency was inconclusive: 35.5 µM [inhibitor, full curve].
`O=C1CC2(CCN(C(=O)c3ccc(Cl)cc3)CC2)Oc2cc(Cl)ccc21` was tested, and the Potency was inconclusive: 50.1 µM [inhibitor, partial curve, poor fit].
For `CC1CCCCC1NC(=O)c1cc(Sc2cccc(Cl)c2)nc2ccccc12` (stereo not given), the activity change, negative = inhibition was inconclusive: -36.1% [inhibitor].
In the case of `CC(C)c1ccc(NC(=O)C(c2ccccc2)N2CCN(C(=O)c3ccco3)CC2)cc1` (stereo not given), the Potency is reported as inconclusive: 25.1 µM [inhibitor, single point].
With `Cc1nn(-c2nc3c(c(=O)n(Cc4ccccc4Cl)c(=O)n3C)n2C(C)C)c(C)c1C` the Potency was inconclusive: 0.251 µM [inhibitor, full curve, poor fit].
`CCCCCSc1nc2c(c(=O)[nH]c(=O)n2C)n1CCCc1ccccc1` was tested, and the “activity change, negative = inhibition” value was inactive: -0.619%.
`CCn1c(SCC(=O)Nc2ccc3ccccc3c2)nnc1-c1cc2ccccc2o1` was tested, and the “activity change, negative = inhibition” value was inactive: -3.08%.
In the case of `CCCCCCCCCCCCCCCCCCc1ccc(C(=O)/C=C/C(=O)O)cc1`, the “activity change, negative = inhibition” value is reported as inactive: -11%.
For `CCOc1cc(/C=C2\NC(=O)NC2=O)cc(I)c1OC(C)C`, the “activity change, negative = inhibition” value was inactive: -8.6%.
With `CCc1ccc(S(=O)(=O)N2C[C@@H](F)C[C@H]2C(=O)N2CCc3ccccc3C2)cc1` the Potency was inconclusive: 8.91 µM [inhibitor, full curve].
In the case of `CC(NC(=O)CSc1ncccc1C(=O)O)C1CC2CCC1C2` (stereo not given), the Potency is reported as inconclusive: 15.8 µM [inhibitor, partial curve, poor fit].
`CC(=O)c1ccc(C(=O)Nc2ccc(SC3CCCC3)cc2)s1` was tested, and the Potency was inconclusive: 31.6 µM [inhibitor, partial curve, poor fit].
With `Cc1ccc(C)c(NC(=O)C(CC(C)C)N2Cc3ccccc3C2=O)c1` (stereo not given) the Potency was inconclusive: 126 µM [inhibitor, partial curve, poor fit].
`COc1ccc(N2C(=O)NC(=O)C2=O)cc1` was tested, and the Potency was inconclusive: 7.94 µM [inhibitor, full curve].
In the case of `COc1ccc(CCNC(=O)c2ccc(Br)cc2)cc1`, the “activity change, negative = inhibition” value is reported as inactive: 260%.
In the case of `COc1ccc(CNC(=O)C2(c3ccc(Cl)cc3)CC2)cc1`, the “activity change, negative = inhibition” value is reported as inactive: -4.09%.
With `Cc1cccc(N/N=C/c2ccc(Br)cc2)c1` the Potency was inconclusive: 25.1 µM [inhibitor, partial curve, poor fit].
In the case of `Cc1ccc(C(=O)N2CCC(N3CCCNC3=O)CC2)cc1`, the Potency is reported as “inactive”.
In the case of `O=C(O)c1ccc(-c2sc(Nc3ccccc3)n[n+]2-c2ccccc2)cc1`, the Potency is reported as inconclusive: 44.7 µM [inhibitor, partial curve, poor fit].
With `CC(C)(C)c1csc(NC(=O)c2ccccc2O)n1` the Potency was inconclusive: 100 µM [inhibitor, single point].
In the case of `Cc1nc2ccccc2nc1CS(=O)(=O)CC(=O)NC1CCCC1`, the Potency is reported as inconclusive: 126 µM [inhibitor, partial curve, poor fit].
In the case of `O=c1cc(CN2CCCCCCC2)c2ccccc2o1`, the Potency is reported as inconclusive: 100 µM [inhibitor, single point].
With `COc1ccccc1OCCn1c(SCC(=O)O)nc2ccccc21` the Potency was inconclusive: 31.6 µM [inhibitor, single point].
In the case of `O=C(N/N=C/c1cc2c(cc1Cl)OCO2)c1cc(-c2ccccc2)n[nH]1`, the Potency is reported as inconclusive: 35.5 µM [inhibitor, single point].
With `NC(=O)C1CCN(C(=O)COc2ccc3c(=O)c(-c4ccccc4)coc3c2)CC1` the activity change, negative = inhibition was inconclusive: -31.3% [inhibitor].
In the case of `CN(CCOc1ccccc1)C(=O)c1ccc2c(c1)OCO2`, the “activity change, negative = inhibition” value is reported as inactive: 17%.
For `CN(C(=O)CSc1ccc(S(=O)(=O)N2CCCCC2)cn1)c1ccccc1`, the “activity change, negative = inhibition” value was inactive: -2.27%.
For `O=C(CCC1CCCN(C(=O)C2CCCC2)C1)NCc1ccc(F)c(F)c1` (stereo not given), the “activity change, negative = inhibition” value was inactive: -2.15%.
In the case of `CC(C)(C)c1ccc(O)c(C(C)(C)C)c1O`, the Potency is reported as inconclusive: 70.8 µM [inhibitor, partial curve, poor fit].
For `CCS(=O)(=O)N1Cc2ccccc2CC1C(=O)OCC(=O)Nc1ccc(SC(F)F)cc1` (stereo not given), the Potency was inconclusive: 79.4 µM [inhibitor, partial curve, poor fit].
`CCOCCC(=O)N1CCCC(c2cc(N3CCOCC3)nc(C)n2)C1` (stereo not given) was tested, and the Potency was inconclusive: 0.794 µM [inhibitor, full curve, poor fit].
In the case of `CNCCC(F)(F)F`, the Potency is reported as active: 15.8 µM.
With `CC(C)Cn1nc(C(=O)Nc2ccc(I)cc2)c2ccccc2c1=O` the Potency was inconclusive: 44.7 µM [inhibitor, partial curve, poor fit].
In the case of `CC(C)CS(=O)(=O)C1=NSC2=NC(=O)/C(=C\c3ccc(OC(=O)c4ccco4)cc3)C(=N)N21`, the Potency is reported as inconclusive: 44.7 µM [inhibitor, partial curve, poor fit].
`CCn1c(N)c(C(=O)Nc2ccccc2C(=O)OC)sc1=S` was tested, and the Potency was inconclusive: 14.1 µM [inhibitor, partial curve, poor fit].
In the case of `Cc1cc(=S)nc(-c2ccccn2)[nH]1`, the Potency is reported as inconclusive: 89.1 µM [inhibitor, partial curve, poor fit].
With `Cn1cc(C(=O)NCCNC(=O)C2CCCCC2)c2ccccc21` the “activity change, negative = inhibition” value was inactive: 3.08%.
In the case of `Cc1cc(F)ccc1NC(=O)Cn1cc(S(=O)(=O)NC(C)C)c(S(=O)(=O)NC(C)C)c1`, the Potency is reported as inconclusive: 0.794 µM [inhibitor, full curve, poor fit].
For `CCC(C)NCCOCCOc1ccc(Cl)c(C)c1C` (stereo not given), the Potency was inconclusive: 1 µM [inhibitor, full curve].
In the case of `Cc1cccc(NC(=O)N2CCCC(c3nn(C)c(=O)n3C3CCCC3)C2)c1` (stereo not given), the “activity change, negative = inhibition” value is reported as inactive: 23.3%.
In the case of `CCOC(=O)c1c(CN2CCN(CCO)CC2)n(-c2ccccc2)c2cc(Br)c(O)cc12`, the Potency is reported as inconclusive: 79.4 µM [inhibitor, single point].
`CCCn1cnc2c(=S)nc(N)[nH]c21` was tested, and the Potency was inconclusive: 25.1 µM [inhibitor, partial curve].
For `CN(C)S(=O)(=O)c1cccc(C(=O)Nc2ccccc2Cl)c1`, the Potency was inconclusive: 63.1 µM [inhibitor, partial curve, poor fit].
For `O=C(CN1CCSCC1)N/N=C/c1ccc(F)cc1F`, the Potency was inconclusive: 1.26 µM [inhibitor, full curve, poor fit].
`Cc1cc(C)c(S(=O)(=O)Nc2nnc(C)s2)c(C)c1` was tested, and the “activity change, negative = inhibition” value was inactive: -10.9%.
For `COc1ccc(C2NCCc3c2[nH]c2ccccc32)cc1CSc1nc2ccccc2s1` (stereo not given), the Potency was active: 31.6 µM.
`COc1ccc(NC(C)=O)cc1NC(=O)c1cccc(S(=O)(=O)N2CCc3ccccc32)c1` was tested, and the Potency was inconclusive: 3.98 µM [inhibitor, full curve, poor fit].
For `O=C(c1ccccc1)N1CCN(CCc2ccccn2)CC1`, the Potency was inconclusive: 50.1 µM [inhibitor, single point].
`COc1ccc(NC(=O)COc2cccc(C(F)(F)F)c2)cn1` was tested, and the Potency was inconclusive: 89.1 µM [inhibitor, single point].
With `Cc1cccc([C@@H]2[C@@H]3C(=O)N(Cc4ccccc4)C(=O)[C@@H]3[C@]3(Cc4ccc(Cl)cc4)C(=O)N(c4ccc(Br)cc4)C(=O)N23)c1` the Potency was inconclusive: 44.7 µM [inhibitor, partial curve, poor fit].
With `Cc1ccc(NC(=O)c2cnc(N3CCCC3)nc2C)cc1F` the Potency was inconclusive: 126 µM [inhibitor, partial curve, poor fit].
`O=C(Nc1ccc2oc(-c3cccc(Br)c3)nc2c1)c1ccc2c(c1)OCCO2` was tested, and the Potency was inconclusive: 50.1 µM [inhibitor, partial curve, poor fit].
With `COC(=O)C1CCN(S(=O)(=O)Cc2ccccc2)CC1` the Potency was inconclusive: 89.1 µM [inhibitor, partial curve, poor fit].
